From PMC4825927
No constants are given. Whether binding was seen depends on the method and setting. Binding seen in cells or lysates may run through a third protein. Some entries that bind do so weakly or less than the wild type. Tags and fused reporters may be left off the sequences shown.

Protein sequences, listed by entry. Tags and fused reporters are not part of them. Residues count along the entry.
UniProt Q8ZNR3, residues 56-782: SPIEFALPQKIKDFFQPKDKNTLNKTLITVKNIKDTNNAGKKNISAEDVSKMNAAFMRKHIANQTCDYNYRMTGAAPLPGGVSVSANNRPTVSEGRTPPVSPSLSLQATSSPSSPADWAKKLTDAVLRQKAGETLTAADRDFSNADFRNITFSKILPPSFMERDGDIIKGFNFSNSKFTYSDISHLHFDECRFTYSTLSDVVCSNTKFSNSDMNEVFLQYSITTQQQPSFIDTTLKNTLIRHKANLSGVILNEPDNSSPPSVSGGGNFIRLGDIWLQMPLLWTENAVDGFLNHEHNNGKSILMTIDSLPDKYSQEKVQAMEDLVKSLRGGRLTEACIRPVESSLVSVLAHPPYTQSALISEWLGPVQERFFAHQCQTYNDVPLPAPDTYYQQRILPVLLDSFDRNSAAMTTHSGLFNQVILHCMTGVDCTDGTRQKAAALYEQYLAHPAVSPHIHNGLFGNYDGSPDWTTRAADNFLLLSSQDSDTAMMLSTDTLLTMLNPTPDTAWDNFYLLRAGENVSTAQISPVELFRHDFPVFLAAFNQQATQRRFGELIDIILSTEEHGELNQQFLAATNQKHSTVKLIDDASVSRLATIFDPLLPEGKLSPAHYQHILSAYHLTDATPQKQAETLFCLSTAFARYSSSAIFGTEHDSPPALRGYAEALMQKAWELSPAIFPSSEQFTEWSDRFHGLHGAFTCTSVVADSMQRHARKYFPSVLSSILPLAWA

How the values were obtained:
[1] = biological target: FLAG-epitope-tagged SopA^56-782 (wild type), pRK5 (Salmonella enterica serovar Typhimurium) (UniProt Q8ZNR3); test: co-IP; HEK 293T transiently co-transfected with a FLAG-tagged and an M45-tagged protein; lysis in 20 mM Hepes pH 7.4, 150 mM NaCl, 0.2% Triton-X-100; anti-FLAG M2 agarose 2 h; Western blot with anti-M45 and anti-FLAG
[2] = biological target: T1, FLAG-epitope-tagged RIG-I (full length) (human) (UniProt O95786); test: as above
T1 sequence: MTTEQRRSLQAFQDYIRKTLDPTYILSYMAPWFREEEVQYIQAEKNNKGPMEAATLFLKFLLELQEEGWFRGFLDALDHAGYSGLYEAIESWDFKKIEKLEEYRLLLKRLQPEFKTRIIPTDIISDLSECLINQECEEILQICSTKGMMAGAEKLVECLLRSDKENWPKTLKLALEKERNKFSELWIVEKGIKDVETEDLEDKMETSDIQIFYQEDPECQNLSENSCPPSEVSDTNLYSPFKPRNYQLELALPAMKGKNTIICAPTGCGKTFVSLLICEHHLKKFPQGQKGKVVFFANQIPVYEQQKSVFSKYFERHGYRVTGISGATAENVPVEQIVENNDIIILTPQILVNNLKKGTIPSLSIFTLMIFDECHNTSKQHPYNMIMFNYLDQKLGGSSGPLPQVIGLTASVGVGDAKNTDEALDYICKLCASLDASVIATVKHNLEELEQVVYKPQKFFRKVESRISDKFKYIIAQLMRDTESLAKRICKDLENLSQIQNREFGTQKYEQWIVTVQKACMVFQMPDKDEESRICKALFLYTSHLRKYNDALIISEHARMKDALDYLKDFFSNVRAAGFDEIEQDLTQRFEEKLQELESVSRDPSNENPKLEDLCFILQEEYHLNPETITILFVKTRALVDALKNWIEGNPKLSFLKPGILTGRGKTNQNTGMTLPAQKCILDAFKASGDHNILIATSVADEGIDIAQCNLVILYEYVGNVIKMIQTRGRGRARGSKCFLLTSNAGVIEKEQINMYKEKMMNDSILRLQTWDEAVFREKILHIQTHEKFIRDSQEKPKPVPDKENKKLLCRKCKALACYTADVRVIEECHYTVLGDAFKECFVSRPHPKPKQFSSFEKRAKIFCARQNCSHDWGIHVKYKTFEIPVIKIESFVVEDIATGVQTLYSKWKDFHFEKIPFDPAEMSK

B1: M45-epitope-tagged TRIM56, pRK5 (protein, UniProt Q9BRZ2 1-755)
chain: MVSHGSSPSLLEALSSDFLACKICLEQLRAPKTLPCLHTYCQDCLAQLADGGRVRCPECRETVPVPPEGVASFKTNFFVNGLLDLVKARACGDLRAGKPACALCPLVGGTSTGGPATARCLDCADDLCQACADGHRCTRQTHTHRVVDLVGYRAGWYDEEARERQAAQCPQHPGEALRFLCQPCSQLLCRECRLDPHLDHPCLPLAEAVRARRPGLEGLLAGVDNNLVELEAARRVEKEALARLREQAARVGTQVEEAAEGVLRALLAQKQEVLGQLRAHVEAAEEAARERLAELEGREQVARAAAAFARRVLSLGREAEILSLEGAIAQRLRQLQGCPWAPGPAPCLLPQLELHPGLLDKNCHLLRLSFEEQQPQKDGGKDGAGTQGGEESQSRREDEPKTERQGGVQPQAGDGAQTPKEEKAQTTREEGAQTLEEDRAQTPHEDGGPQPHRGGRPNKKKKFKGRLKSISREPSPALGPNLDGSGLLPRPIFYCSFPTRMPGDKRSPRITGLCPFGPREILVADEQNRALKRFSLNGDYKGTVPVPEGCSPCSVAALQSAVAFSASARLYLINPNGEVQWRRALSLSQASHAVAALPSGDRVAVSVAGHVEVYNMEGSLATRFIPGGKASRGLRALVFLTTSPQGHFVGSDWQQNSVVICDGLGQVVGEYKGPGLHGCQPGSVSVDKKGYIFLTLREVNKVVILDPKGSLLGDFLTAYHGLEKPRVTTMVDGRYLVVSLSNGTIHIFRVRSPDS
- binding [1]: binds

B2: M45-epitope-tagged TRIM65, pRK5 (protein, UniProt Q6PJ69 1-517)
chain: MAAQLLEEKLTCAICLGLYQDPVTLPCGHNFCGACIRDWWDRCGKACPECREPFPDGAELRRNVALSGVLEVVRAGPARDPGPDPGPGPDPAARCPRHGRPLELFCRTEGRCVCSVCTVRECRLHERALLDAERLKREAQLRASLEVTQQQATQAEGQLLELRKQSSQIQNSACILASWVSGKFSSLLQALEIQHTTALRSIEVAKTQALAQARDEEQRLRVHLEAVARHGCRIRELLEQVDEQTFLQESQLLQPPGPLGPLTPLQWDEDQQLGDLKQLLSRLCGLLLEEGSHPGAPAKPVDLAPVEAPGPLAPVPSTVCPLRRKLWQNYRNLTFDPVSANRHFYLSRQDQQVKHCRQSRGPGGPGSFELWQVQCAQSFQAGHHYWEVRASDHSVTLGVSYPQLPRCRLGPHTDNIGRGPCSWGLCVQEDSLQAWHNGEAQRLPGVSGRLLGMDLDLASGCLTFYSLEPQTQPLYTFHALFNQPLTPVFWLLEGRTLTLCHQPGAVFPLGPQEEVLS
- binding [2]: no binding
- binding [1]: binds
